# Source: paper doi:10.1101/2020.02.03.932962
# By UniProt entry, the sequences of proteins in these tests, tags left out.
# UniProt Q15672, whole entry: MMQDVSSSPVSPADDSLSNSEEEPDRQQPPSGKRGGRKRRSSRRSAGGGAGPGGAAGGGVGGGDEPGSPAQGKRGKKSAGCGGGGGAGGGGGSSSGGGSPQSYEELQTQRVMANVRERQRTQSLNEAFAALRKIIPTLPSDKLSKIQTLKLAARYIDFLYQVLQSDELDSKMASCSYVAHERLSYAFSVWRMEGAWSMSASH
# UniProt O95863, whole entry: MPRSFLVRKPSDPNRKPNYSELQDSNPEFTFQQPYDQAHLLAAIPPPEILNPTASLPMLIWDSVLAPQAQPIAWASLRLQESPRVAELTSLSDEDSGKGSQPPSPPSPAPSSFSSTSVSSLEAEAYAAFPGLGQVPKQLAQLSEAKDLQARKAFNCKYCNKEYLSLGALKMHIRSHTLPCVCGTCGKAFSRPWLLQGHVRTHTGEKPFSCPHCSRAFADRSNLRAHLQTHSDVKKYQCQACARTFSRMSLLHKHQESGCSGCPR
# These are yes or no findings as the source states them, for the method shown. For some assays here: Binding seen in cells or lysates may run through a third protein. Some entries that bind do so weakly or less than the wild type. Where a sequence is shown, tags or fusion partners need not be part of it.
# T1: Myc-E47 (UniProt P15923)
# T1 sequence: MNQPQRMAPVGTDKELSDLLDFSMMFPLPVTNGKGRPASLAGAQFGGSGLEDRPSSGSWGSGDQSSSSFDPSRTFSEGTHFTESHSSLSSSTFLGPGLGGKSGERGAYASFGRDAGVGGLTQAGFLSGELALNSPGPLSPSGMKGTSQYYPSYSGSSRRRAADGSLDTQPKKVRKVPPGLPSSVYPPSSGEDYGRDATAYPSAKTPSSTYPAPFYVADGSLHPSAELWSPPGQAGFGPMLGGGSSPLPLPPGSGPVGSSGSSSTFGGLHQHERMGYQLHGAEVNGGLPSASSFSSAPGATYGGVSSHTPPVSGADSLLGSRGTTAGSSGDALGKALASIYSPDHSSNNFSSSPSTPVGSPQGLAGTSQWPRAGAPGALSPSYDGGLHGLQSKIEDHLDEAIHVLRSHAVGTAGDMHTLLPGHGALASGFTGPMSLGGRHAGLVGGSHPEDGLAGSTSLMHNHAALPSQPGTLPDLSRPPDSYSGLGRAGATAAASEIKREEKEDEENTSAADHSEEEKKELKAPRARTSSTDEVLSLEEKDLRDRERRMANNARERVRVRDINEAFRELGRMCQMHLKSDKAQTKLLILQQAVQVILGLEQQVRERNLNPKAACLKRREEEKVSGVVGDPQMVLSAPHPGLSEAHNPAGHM
# B1: Myc-E47 (protein, UniProt P15923-2 1-651)
# chain: T1 sequence
# Tests used:
# Myc-E47 = molecular target: T1, Myc-E47; experiment: co-IP
# HA-Twist = HA-Twist (UniProt Q15672); experiment: native gel or EMSA
# Flag-Twist [1] = molecular target: Flag-Twist (UniProt Q15672); experiment: native gel or EMSA
# Flag-Twist [2] = molecular target: Flag-Twist (UniProt Q15672); experiment: pull-down
binding (Myc-E47),binding (HA-Twist),binding (Flag-Twist [1]),binding (Flag-Twist [2]),Molecule
no binding,,,,Snail-C-Flag (from UniProt O95863 1-264)
binds,,,,HA-Twist (from UniProt Q15672 1-202)
,binds,binds,binds,B1
